Test: Enantioselectivity of MIBK amination, chiral gas chromatography
Format: biochemical

B1: K67S/E113V/N261L/V290C: LeuDH-AmDH quadruple variant, SEQ ID NO:10, library 11 (protein)
chain: ELFQYMEKYDYEQVLFCQDKESGLKAIIVIHDTTLGPALGGTRMWMYNSEEEALEDALRLARGSTYMNAAAGLNLGGGKTVIIGDPRKDKNEAMFRAFGRFIQGLNGRYITAVDVGTTVADMDIIYQETDYVTGISPEFGSSGNPSPATAYGVYRGMKAAAKEAFGSDSLEGKVVAVQGVGNVAYHLCRHLHEEGAKLIVTDINKEAVARAVEEFGAKAVDPNDIYGVECDIFAPCALGGIINDQTIPQLKAKVIAGSADLQLKEPRHGDMIHEMGIVYAPDYVINAGGCINVADELYGYNRERAMKKIEQIYDNIEKVFAIAKRDNIPTYVAADRMAEERIETMRKARSQFLQNGHHILSRRRAR
With B1 the “e.e. of (R)-1,3-DMBA” value (175 mL-scale reaction) was over 99.3% and the e.e. ((R)-1,3-DMBA, TFAA derivatization, chiral GC) was 99.8%.

Source: patent US8835136B2, “Engineered amine dehydrogenases and methods of use thereof” (Georgia Tech Research Corporation, priority 2012, dated 2014)
